Experimental data: paper PMC4872732
Results are given in words; binding and its absence hold for the method and conditions named. In cells and extracts the contact can be indirect. Some binding calls cover weakened binding; strength is not graded here.

Amino acid sequences for entries named in this document (tags omitted).
UniProt Q03347: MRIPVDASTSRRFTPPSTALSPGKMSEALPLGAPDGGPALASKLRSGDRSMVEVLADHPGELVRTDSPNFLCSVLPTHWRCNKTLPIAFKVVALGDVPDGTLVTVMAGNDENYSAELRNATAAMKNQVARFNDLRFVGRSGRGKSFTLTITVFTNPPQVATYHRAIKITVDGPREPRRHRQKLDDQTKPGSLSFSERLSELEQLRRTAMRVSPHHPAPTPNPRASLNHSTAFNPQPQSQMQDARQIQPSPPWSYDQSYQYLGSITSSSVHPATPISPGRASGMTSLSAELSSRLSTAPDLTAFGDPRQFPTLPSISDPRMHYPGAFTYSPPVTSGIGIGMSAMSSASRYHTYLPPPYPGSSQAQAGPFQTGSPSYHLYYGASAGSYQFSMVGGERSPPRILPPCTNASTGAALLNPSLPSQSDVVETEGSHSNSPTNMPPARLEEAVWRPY

Target: T1, Foxp3 (mouse (endogenous in SCp2)) (UniProt Q99JB6)
T1 sequence: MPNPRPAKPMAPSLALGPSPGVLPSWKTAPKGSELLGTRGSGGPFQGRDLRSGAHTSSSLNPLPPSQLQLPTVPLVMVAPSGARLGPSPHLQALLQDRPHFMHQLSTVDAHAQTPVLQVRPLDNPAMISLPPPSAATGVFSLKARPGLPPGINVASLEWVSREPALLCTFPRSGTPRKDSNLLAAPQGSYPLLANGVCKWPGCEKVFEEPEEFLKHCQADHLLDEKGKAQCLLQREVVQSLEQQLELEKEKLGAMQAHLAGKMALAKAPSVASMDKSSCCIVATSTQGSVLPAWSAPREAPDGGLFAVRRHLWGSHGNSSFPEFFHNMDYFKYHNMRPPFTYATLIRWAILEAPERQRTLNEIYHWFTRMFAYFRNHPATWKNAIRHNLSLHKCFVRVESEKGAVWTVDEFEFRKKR
Test: co-IP; SCp2 lysate pre-cleared with A/G plus Agarose, incubated with or without anti-Foxp3 antibody (SC-28705) and Agarose at 4°C; precipitate washed with PBS and blotted with anti-Runx1 antibody

- binding: binds
Substance: Runx1 (from UniProt Q03347 1-451)
